This is an account of results in the supplement of paper PMC7024190.

Counter-ions that a name gives are not always drawn. This is one part of the list. Single values are uncertain here, since repeats match poorly.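 The cells were human embryonic kidney cells carrying a Renilla luciferase gene, driven by the HSV-TK promoter, on a plasmid put in briefly by transfection. This is the first-round screen of about ten thousand compounds, looking for ones that raise reporter output.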

The test system of this assay is HEK 293FT. Put plainly: log relative Renilla luciferase luminescence (reporter expression vs reference, reference not stated) (log (base not stated)); higher = higher recombinant reporter expression. To be noted: 10 µM; time after transfection 48 h.
With `CC[C@@H](CO)NC(=O)[C@@H]1C=C2c3cccc4[nH]cc(c34)C[C@H]2N(C)C1` [Methylergometrine maleate], the log turned out to be 0.0159.
Consider `C[C@@H]1C[C@@H]([C@H](O)CC2CC(=O)NC(=O)C2)C(=O)[C@@H](C)C1` [Cycloheximide], for which the log is -1.02.
Under `Cc1cc(C(C#N)c2ccc(Cl)cc2)c(Cl)cc1NC(=O)c1cc(I)cc(I)c1O` (stereo unspecified) [Closantel] stands -1.82.
`O=c1[nH]oc2c1CCNC2` [THIP Hydrochloride]: the log was found to be 0.0542.
Under `NCC1(CC(=O)O)CCCCC1` [Gabapentin] stands -0.044; under `C=C1CC[C@@]2(O)[C@H]3Cc4ccc(O)c5c4[C@@]2(CCN3CC2CC2)[C@H]1O5` [Nalmefene hydrochloride], -0.0173.
In the case of `O=[N+]([O-])O[C@H]1CO[C@H]2[C@@H]1OC[C@H]2O[N+](=O)[O-]` [Isosorbide dinitrate], the log was determined as 0.172.
Under `O=C(CCCN1CCC2(CC1)C(=O)NCN2c1ccccc1)c1ccc(F)cc1` [Spiperone] stands -0.0173; under `CC(N)C(O)c1ccccc1` (stereo unspecified) [Phenylpropanolamine hydrochloride], -0.0382.
For the compound `CCOC(=O)c1cncn1[C@H](C)c1ccccc1` [Etomidate], the log was -0.00193.
Under `CC(O)(CS(=O)(=O)c1ccc(F)cc1)C(=O)Nc1ccc(C#N)c(C(F)(F)F)c1` (stereo unspecified) [Bicalutamide] stands -0.012; under `CC(C)c1cccc(C(C)C)c1O` [Propofol], 0.154; under `C[C@]12CC[C@H](O)C[C@H]1CC[C@@H]1[C@@H]2CC[C@]2(C)[C@@H](C3=CC(=O)OC3)CC[C@]12O` [Digitoxigenin], -1.07.
The value for `CN1C[C@H](CNC(=O)OCc2ccccc2)C[C@@H]2c3cccc4c3c(cn4C)C[C@H]21` [Metergoline] was -1.38; that for `CC(=O)O[C@H]1CC[C@@]2(C)C(=CC[C@@H]3[C@@H]2CC[C@]2(C)C(=O)CC[C@@H]32)C1` [Dehydroisoandosterone 3-acetate] was 0.154; that for `O=C(NCNC(=O)NC1C(=O)NC(=O)N1CO)NC1C(=O)NC(=O)N1CO` (stereo unspecified) [Imidurea] was 0.0669.
The value for `Oc1ccc2c3c1O[C@H]1[C@@H](O)CC[C@@]4(O)[C@@H](C2)N(CC2CCC2)CC[C@]314` [Nalbuphine hydrochloride] was 0.0422.
`COc1cc2c(c(OC)c1OC)-c1ccc(OC)c(=O)cc1[C@@H](NC(C)=O)CC2` [Colchicine]: the log stood at 0.093.
Under `CCCCCC[C@H]1C(=O)O[C@H](C)[C@H](NC(=O)c2cccc(NC=O)c2O)C(=O)O[C@@H](C)[C@@H]1OC(=O)CC(C)C` [Antimycin A] stands -1.22; under `c1ccc2c(c1)OCC(C1=NCCN1)O2` (stereo unspecified) [Idazoxan hydrochloride], 0.0842.
The value for `CC[N+]1(C)CCCC(OC(=O)C(O)(c2ccccc2)c2ccccc2)C1` (stereo unspecified) [Pipenzolate bromide] was 0.0554; that for `O=c1c2ccccc2[se]n1-c1ccccc1` [Ebselen] was -1.39; that for `CC(=O)O[C@H]1C[C@@H]2CC[C@@H]3[C@H](CC[C@@]4(C)[C@H]3C[C@H]([N+]3(C)CCCCC3)[C@@H]4OC(C)=O)[C@@]2(C)C[C@@H]1[N+]1(C)CCCCC1` [Pancuronium bromide] was -0.058.
Under `CCCC(C)C1(CC)C(=O)NC(=O)NC1=O` (stereo unspecified) [Pentobarbital] stands -0.155; under `C[C@]12C[C@H]3S[C@H]3C[C@@H]1CC[C@@H]1[C@@H]2CC[C@]2(C)[C@@H](O)CC[C@@H]12` [Epitiostanol], -0.0407.
For `COP(=O)(OC)C(O)C(Cl)(Cl)Cl` (stereo unspecified) [Trichlorfon], the log was -0.0759.
Consider `C=CCN1CC[C@]23c4c5ccc(O)c4O[C@H]2C(=O)CC[C@@]3(O)[C@H]1C5` [Naloxone hydrochloride], for which the log is -0.0188.
The value for `C(#CCN1CCCC1)CN1CCCC1` [Tremorine dihydrochloride] was -0.403; that for `C[C@]12CCC(=O)C=C1C=C[C@@H]1[C@@H]2CC[C@@]2(C)[C@H]1CC[C@@]2(O)CCC(=O)O` [Canrenoic acid potassium salt] was 0.0956; that for `C#C[C@]1(O)CC[C@H]2[C@@H]3CCC4=CC(=O)CCC4=C3C=C[C@@]21CC` [Gestrinone] was -0.415.
Under `CN1[C@@H]2C[C@@H](OC(=O)[C@H](CO)c3ccccc3)C[C@H]1[C@@H]1O[C@@H]12` [Scopolamine hydrochloride] stands -0.0393.
In the case of `NCC(CC(=O)O)c1ccc(Cl)cc1` (racemic) [Baclofen (R,S)], the log is -0.0311.
The value for `N[C@@H]1C[C@H]1c1ccccc1` [Tranylcypromine hydrochloride] was 0.23; that for `O=C1CC[C@@]2(O)[C@H]3Cc4ccc(O)c5c4[C@@]2(CCN3CC2CC2)[C@H]1O5` [Naltrexone hydrochloride dihydrate] was 0.0822.
Turning to `CN[C@@H]1[C@@H](O)[C@@H](O[C@@H]2[C@@H](O)[C@H](O[C@H]3O[C@H](CN)CC[C@H]3N)[C@@H](N)C[C@H]2N)OC[C@]1(C)O.CN[C@@H]1[C@@H](O)[C@@H](O[C@@H]2[C@@H](O)[C@H](O[C@H]3O[C@H]([C@@H](C)N)CC[C@H]3N)[C@@H](N)C[C@H]2N)OC[C@]1(C)O.CN[C@@H]1[C@@H](O)[C@@H](O[C@@H]2[C@@H](O)[C@H](O[C@H]3O[C@H]([C@@H](C)NC)CC[C@H]3N)[C@@H](N)C[C@H]2N)OC[C@]1(C)O` [Gentamicine sulfate], the log was 0.03.
Under `CC(NC(C)(C)C)C(=O)c1cccc(Cl)c1` (stereo unspecified) [Bupropion hydrochloride] stands -0.0681; under `CN1CCC2(C)c3cc(O)ccc3N(C)C12` (single isomer, unassigned; (-)) [(-)-Eseroline fumarate salt], 0.0511.
Turning to `CC1OC(OC2/C=C/C=C/C=C/C=C/CC/C=C/C=C/[C@H](C)[C@@H](O)[C@@H](C)[C@H](C)OC(=O)CC(O)CC(O)CC(O)CCC(O)C(O)C[C@]3(O)CC(O)C(C(=O)O)C(C2)O3)C(O)C(N)C1O` (stereo partly specified) [Nystatine], the log was determined as 0.0241.
`NCCCNCCSP(=O)(O)O` [Amifostine]: the log was found to be 0.00934.
Consider `NCCC(O)C(=O)NC1CC(N)C(OC2OC(CN)C(O)[C@H](O)[C@@H]2N)[C@H](OC2O[C@H](CO)[C@@H](O)[C@@H]2O)[C@@H]1O` (stereo partly specified) [Butirosin disulfate salt], for which the log amounted to 0.157.
Under `O=c1[nH]c2ccccc2n1C1CCN(CCCC(c2ccc(F)cc2)c2ccc(F)cc2)CC1` [Pimozide] stands -0.00821.
Under `C[C@]12CC[C@@H](O)C[C@H]1CC[C@@H]1[C@@H]2CC[C@]2(C)C(=O)CC[C@@H]12` [3-alpha-Hydroxy-5-beta-androstan-17-one] stands 0.109; under `C[C@@H]1O[C@@H](O[C@@H]2C=C3CC[C@@H]4[C@H](CC[C@]5(C)[C@@H](c6ccc(=O)oc6)CC[C@]45O)[C@@]3(C)CC2)[C@H](O)[C@H](O)[C@H]1O` [Proscillaridin A], -1.09.
Under `C#CCN(C)[C@H](C)Cc1ccccc1` [Selegiline hydrochloride] stands 0.185.
For the compound `CN(C)C(=O)Oc1cccc([N+](C)(C)C)c1` [Neostigmine bromide], the log was 0.0115.
For `CNC(=O)Oc1ccc2c(c1)[C@]1(C)CCN(C)[C@@H]1N2C` [Eserine sulfate, physostigmine sulfate], the log was -0.628.
In the case of `COc1ccc(C(CN(C)C)C2(O)CCCCC2)cc1` (stereo unspecified) [Venlafaxine], the log is 0.148.
Under `CCNCC(O)c1cccc(O)c1` (stereo unspecified) [Etilefrine hydrochloride] stands -0.0312; under `CC(C)(N)Cc1ccccc1` [Phentermine hydrochloride], -0.182; under `CN1[C@@H]2CC[C@H]1C[C@@H](OC(=O)C(CO)c1ccccc1)C2` (stereo partly specified) [Atropine sulfate monohydrate], -0.098.
Consider `CC(C)C[C@H]1C(=O)N2CCC[C@H]2[C@]2(O)O[C@](NC(=O)[C@@H]3C=C4c5cccc6[nH]c(Br)c(c56)C[C@H]4N(C)C3)(C(C)C)C(=O)N12` [Bromocryptine mesylate], for which the log is -0.0719.
Under `CCC1=C[C@H]2CN3CCc4c([nH]c5ccccc45)[C@](C(=O)OC)(C2)[C@H]13` [Catharanthine] stands 0.0641; under `CNC(C)(C)Cc1ccccc1` [Mephentermine hemisulfate], -0.0609; under `C[C@]12CCC(=O)C(O)=C1CC[C@@H]1[C@@H]2CC[C@]2(C)C(=O)CC[C@@H]12` [Formestane], 0.101.
For the compound `CN1C(=O)CCS(=O)(=O)C1c1ccc(Cl)cc1` (stereo unspecified) [Chlormezanone], the log is -0.00526.
With `C[C@]12COC(=O)C[C@@H]1CC[C@@H]1[C@@H]2CC[C@@]2(C)[C@H]1CC[C@]2(C)O` [Oxandrolone], the log was -0.137.
Under `O=P1(N(CCCl)CCCl)NCCCO1` (stereo unspecified) [Cyclophosphamide] stands 0.1; under `C=C1C[C@@H]2[C@H](CC[C@]3(C)C(=O)CC[C@@H]23)[C@@]2(C)C=CC(=O)C=C12` [Exemestane], 0.0207.
On to `CC(=O)[C@H]1CC[C@H]2[C@@H]3CC[C@H]4C[C@H](O)CC[C@]4(C)[C@H]3C(=O)C[C@]12C` [Alfaxalone], for which the log turned out to be 0.0914.
As for `CCC1(C)CC(=O)NC(=O)C1` [Bemegride], the log is 0.131.
The value for `CCCC(C)(COC(N)=O)COC(=O)NC(C)C` (stereo unspecified) [Carisoprodol] was -0.0946; that for `OC(c1ccccc1)(c1ccccc1)C1CCNCC1` [Azacyclonol] was -0.0223; that for `C[N+]1(C)CCCC(OC(=O)C(O)(c2ccccc2)c2ccccc2)C1` (stereo unspecified) [Mepenzolate bromide] was 0.0221.
The value for `C[C@@H]1CN([C@H]2CC[C@](C#N)(c3ccc(F)cc3)CC2)CC[C@]1(C(=O)O)c1ccccc1` [Levocabastine hydrochloride] was -0.0127; that for `C=CCC1(CC(C)C)C(=O)NC(=O)NC1=O` [Butalbital] was -0.0555; that for `O=C(CCCN1CCC(n2c(=O)[nH]c3ccccc32)CC1)c1ccc(F)cc1` [Benperidol] was 0.0824.
